The results in this text go back to publication PMC11772975.

The target of the assay is LgBiT-p65, Q04206. Put plainly: split reporter. Particulars: remark: other sources report otherwise.

Results are given in words; binding and its absence hold for the method and conditions named. Binding seen in cells or lysates may run through a third protein. Some entries that bind do so weakly or less than the wild type.

B1: SmBiT-IκBα, P25963 1-317 (protein)
chain: MFQAAERPQEWAMEGPRDGLKKERLLDDRHDSGLDSMKDEEYEQMVKELQEIRLEPQEVPRGSEPWKQQLTEDGDSFLHLAIIHEEKALTMEVIRQVKGDLAFLNFQNNLQQTPLHLAVITNQPEIAEALLGAGCDPELRDFRGNTPLHLACEQGCLASVGVLTQSCTTPHLHSILKATNYNGHTCLHLASIHGYLGIVELLVSLGADVNAQEPCNGRTALHLAVDLQNPDLVSLLLKCGADVNRVTYQGYSPYQLTWGRPSTRIQQQLGQLTLENLQMLPESEDEESYDTESEFTEFTEDELPYDDCVFGGQRLTL
Take B1: the binding result is listed as “binds”.
